The target of this experiment is T1, VAMP7 (mouse (endogenous in brain cortex)), P70280.
T1 chain: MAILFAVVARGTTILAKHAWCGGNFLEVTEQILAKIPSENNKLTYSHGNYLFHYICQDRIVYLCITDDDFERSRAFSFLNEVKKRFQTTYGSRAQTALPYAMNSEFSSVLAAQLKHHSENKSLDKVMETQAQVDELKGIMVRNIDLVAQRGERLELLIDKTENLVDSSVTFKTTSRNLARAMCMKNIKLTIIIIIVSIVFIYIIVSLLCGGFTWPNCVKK
The experiment is described as follows: co-IP; post-nuclear supernatant of mouse brain cortex homogenate in PBS with 0.1% Triton X-100; antibody 2 h at 4 °C, then protein-G Sepharose 1 h; five washes with lysis buffer; eluate boiled 20 min; immunoblot. Particulars: remark: other sources report otherwise. In general terms: Immunoblotting shows a protein as a band on a membrane.

These are yes or no findings as the source states them, for the method shown. In cells and extracts the contact can be indirect. Some entries that bind do so weakly or less than the wild type.

B1: SNAP23, O09044 1-210 (protein)
chain: MDNLSPEEVQLRAHQVTDESLESTRRILGLAIESQDAGIKTITMLDEQGEQLNRIEEGMDQINKDMREAEKTLTELNKCCGLCICPCNRTKNFESGKNYKATWGDGGDNSPSNVVSKQPSRITNGQPQQTTGAASGGYIKRITNDAREDEMEENLTQVGSILGNLKNMALDMGNEIDAQNQQIQKITEKADTNKNRIDIANTRAKKLIDS
Turning to B1, the binding result is “binds”.

The values above are taken from PMC9395532.
